For one experiment, the target named is T1, N1-gLuc-RBM39 (human) (UniProt Q14498).
T1 sequence: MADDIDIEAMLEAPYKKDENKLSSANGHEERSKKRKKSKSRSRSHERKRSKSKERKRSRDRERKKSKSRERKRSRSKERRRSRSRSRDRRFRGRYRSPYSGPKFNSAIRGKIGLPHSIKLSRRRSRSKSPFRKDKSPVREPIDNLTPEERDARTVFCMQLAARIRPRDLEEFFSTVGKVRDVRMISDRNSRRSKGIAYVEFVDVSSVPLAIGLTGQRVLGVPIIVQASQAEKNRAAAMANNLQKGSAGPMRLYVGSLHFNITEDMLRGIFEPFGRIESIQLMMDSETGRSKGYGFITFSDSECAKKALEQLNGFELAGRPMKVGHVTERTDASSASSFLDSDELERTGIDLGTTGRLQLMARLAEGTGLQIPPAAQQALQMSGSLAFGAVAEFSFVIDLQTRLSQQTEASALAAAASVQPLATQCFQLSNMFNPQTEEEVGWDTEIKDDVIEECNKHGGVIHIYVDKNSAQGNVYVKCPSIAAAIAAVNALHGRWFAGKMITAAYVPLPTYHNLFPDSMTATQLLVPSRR
The experiment is described as follows: split reporter; gaussia luciferase proximity complementation assay (gPCA) in HEK-293 cells transfected with N1-gLuc-RBM39 and N2-gLuc-c-Jun, separately or together; cisplatin added after 24 h for a further 24 h; luciferase activity read in lysate.

By UniProt entry, the sequences of proteins in these tests, tags left out.
UniProt P05412: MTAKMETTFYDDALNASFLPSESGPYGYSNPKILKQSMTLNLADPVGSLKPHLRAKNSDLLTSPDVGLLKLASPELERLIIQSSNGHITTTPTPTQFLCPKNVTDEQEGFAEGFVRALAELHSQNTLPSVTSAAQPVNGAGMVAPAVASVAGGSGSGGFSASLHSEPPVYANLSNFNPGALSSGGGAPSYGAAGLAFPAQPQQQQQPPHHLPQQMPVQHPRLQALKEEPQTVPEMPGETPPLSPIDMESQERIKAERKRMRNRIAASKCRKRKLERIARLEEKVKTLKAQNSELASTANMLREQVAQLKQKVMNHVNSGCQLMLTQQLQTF

For experiment [1], the target named is T2, Flag-RBM39 (RNA binding motif protein 39) (human) (UniProt Q14498).
T2 sequence: T1 sequence
Description: co-IP; as a1, mock-treated MCF-7 cells (no cisplatin); Flag-RBM39 precipitated with Flag antibody in presence of RNAse A; western blot.

Experiment [2] addresses T2, Flag-RBM39 (RNA binding motif protein 39) (human). Description: co-IP; Flag-RBM39 precipitated with Flag antibody and protein A/G magnetic beads from 1 mg MCF-7 extract (20 mM Tris-HCl pH 7.5, 150 mM NaCl, 1% Triton X-100, 10% glycerol) in presence of RNAse A, 4°C; cells treated with cisplatin (50 μM, 24 h) or mock-treated, with or without JNK-IN-8 (1 μM) 3 h before cisplatin; western blot. For orientation: A western blot detects proteins with antibodies after separation by electrophoresis.

Results are given in words; binding and its absence hold for the method and conditions named. Binding seen in cells or lysates may run through a third protein. Some binding calls cover weakened binding; strength is not graded here. Where a sequence is shown, tags or fusion partners need not be part of it.

With “N2-gLuc-c-Jun (from UniProt P05412 1-331)”, the binding entry in the experiment with N1-gLuc-RBM39 (human) is given as “binds”. c-Jun (from UniProt P05412 1-331): the binding result is given as “no binding (condition: cells without cisplatin)” in experiment [1] and “binds” in experiment [2].

For the origin of these results see article PMC9825188.
